Measured values taken from article PMC4538816.
Results are given in words; binding and its absence hold for the method and conditions named. Binding seen in cells or lysates may run through a third protein.

Target: T1, PALB2 (human (endogenous in human cells; cell line of the IP not named)) (UniProt Q86YC2)
T1 sequence: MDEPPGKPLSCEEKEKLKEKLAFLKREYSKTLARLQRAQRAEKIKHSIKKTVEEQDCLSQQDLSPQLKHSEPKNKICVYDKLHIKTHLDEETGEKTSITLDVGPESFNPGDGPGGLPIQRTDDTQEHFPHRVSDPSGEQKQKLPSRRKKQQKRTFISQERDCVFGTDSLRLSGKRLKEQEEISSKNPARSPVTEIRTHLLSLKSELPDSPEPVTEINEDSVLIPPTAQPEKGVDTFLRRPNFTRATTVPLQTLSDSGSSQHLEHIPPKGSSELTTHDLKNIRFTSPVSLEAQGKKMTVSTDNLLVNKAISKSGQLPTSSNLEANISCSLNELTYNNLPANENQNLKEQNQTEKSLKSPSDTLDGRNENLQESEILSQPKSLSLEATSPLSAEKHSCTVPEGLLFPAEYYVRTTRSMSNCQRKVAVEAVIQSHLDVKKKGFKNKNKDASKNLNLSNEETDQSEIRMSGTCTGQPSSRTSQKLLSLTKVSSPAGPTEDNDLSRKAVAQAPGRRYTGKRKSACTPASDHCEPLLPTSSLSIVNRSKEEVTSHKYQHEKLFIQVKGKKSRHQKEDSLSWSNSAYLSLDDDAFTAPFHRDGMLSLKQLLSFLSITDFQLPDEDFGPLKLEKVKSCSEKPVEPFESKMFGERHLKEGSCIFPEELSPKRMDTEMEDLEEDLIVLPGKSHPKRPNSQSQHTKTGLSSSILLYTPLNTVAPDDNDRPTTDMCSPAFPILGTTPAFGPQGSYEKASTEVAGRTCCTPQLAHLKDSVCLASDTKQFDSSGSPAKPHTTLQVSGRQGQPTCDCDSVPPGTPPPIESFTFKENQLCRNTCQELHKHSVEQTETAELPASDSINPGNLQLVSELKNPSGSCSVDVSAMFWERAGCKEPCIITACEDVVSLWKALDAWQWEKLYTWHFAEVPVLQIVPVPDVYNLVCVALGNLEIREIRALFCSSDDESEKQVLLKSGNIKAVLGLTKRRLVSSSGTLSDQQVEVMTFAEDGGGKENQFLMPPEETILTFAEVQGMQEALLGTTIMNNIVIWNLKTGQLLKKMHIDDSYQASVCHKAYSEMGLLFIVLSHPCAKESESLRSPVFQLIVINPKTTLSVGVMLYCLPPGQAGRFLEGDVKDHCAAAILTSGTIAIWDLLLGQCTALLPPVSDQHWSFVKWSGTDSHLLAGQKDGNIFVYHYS
Experiment: co-IP; IP of endogenous PALB2 or RAP80 (2 ug antibody, protein A beads, 4°C) from benzonase-treated lysate in EBC-150 (50 mM Tris pH 7.3, 150 mM NaCl, 0.5% NP-40, 1 mM MgCl2); washes in EBC-EDTA; blots for endogenous proteins; in Figure 6D 6 h after 20 Gy of IR, cells treated with siRNAs against USP26 or USP37 (PALB2-BRCA1 markedly reduced)

B1: RAP80 (protein, UniProt Q96RL1 1-719)
chain: MPRRKKKVKEVSESRNLEKKDVETTSSVSVKRKRRLEDAFIVISDSDGEEPKEENGLQKTKTKQSNRAKCLAKRKIAQMTEEEQFALALKMSEQEAREVNSQEEEEEELLRKAIAESLNSCRPSDASATRSRPLATGPSSQSHQEKTTDSGLTEGIWQLVPPSLFKGSHISQGNEAEEREEPWDHTEKTEEEPVSGSSGSWDQSSQPVFENVNVKSFDRCTGHSAEHTQCGKPQESTGRGSAFLKAVQGSGDTSRHCLPTLADAKGLQDTGGTVNYFWGIPFCPDGVDPNQYTKVILCQLEVYQKSLKMAQRQLLNKKGFGEPVLPRPPSLIQNECGQGEQASEKNECISEDMGDEDKEERQESRASDWHSKTKDFQESSIKSLKEKLLLEEEPTTSHGQSSQGIVEETSEEGNSVPASQSVAALTSKRSLVLMPESSAEEITVCPETQLSSSETFDLEREVSPGSRDILDGVRIIMADKEVGNKEDAEKEVAISTFSSSNQVSCPLCDQCFPPTKIERHAMYCNGLMEEDTVLTRRQKEAKTKSDSGTAAQTSLDIDKNEKCYLCKSLVPFREYQCHVDSCLQLAKADQGDGPEGSGRACSTVEGKWQQRLKNPKEKGHSEGRLLSFLEQSEHKTSDADIKSSETGAFRVPSPGMEEAGCSREMQSSFTRRDLNESPVKSFVSISEATDCLVDFKKQVTVQPGSRTRTKAGRGRRRKF
binding: no binding
